Test [1] concerns HCoV-229E. Also on record: species or system Huh-7; HTS, protection from HCoV-229E induced cell death, luminescent cell viability (CellCounting-Lite 2.0), inhibition rate. As to conditions: 24 h post infection, 1 h compound pre-incubation; 10 µM; inhibitor.
The subject of test [2] is HCoV-OC43. Set-up: species or system RD; HTS, protection from HCoV-OC43 induced cell death, luminescent cell viability (CellCounting-Lite 2.0), inhibition rate. As to conditions: 24 h post infection, 1 h compound pre-incubation; 10 µM; inhibitor.

This list holds what a sample rich in strong results left over.

As to `CN[C@@H]1C[C@H]2O[C@@](C)([C@@H]1OC)n1c3ccccc3c3c4c(c5c6ccccc6n2c5c31)C(=O)NC4` [Staurosporine], the “229E Inhibition rate” value in test [1] is on record as 11.8%. Moreover, the “OC43 Inhibition rate” value in test [2] is -2.4%.

With `NCCCC(=O)O` [γ-Aminobutyric acid], the “229E Inhibition rate” value in test [1] was 12.4%. For the same compound, in test [2], the “OC43 Inhibition rate” value is given as 3.9%.

These data come from PMC12431657, “Discovery and mechanistic insights of dibenzoylmethane as a broad spectrum inhibitor of coronavirus” (PLOS Pathogens, 2025).
